Results are given in words; binding and its absence hold for the method and conditions named. Some results given as binding are weak or reduced against the parent protein; the word gives no strength.

By UniProt entry, the sequences of proteins in these tests, tags left out. Where a name states a change or a piece, a line headed by the entry shows the natural chain unless it says otherwise. Chains listed by the source or under a name are the forms on record and can include a tag or linker.
human IgE (P01854, form named): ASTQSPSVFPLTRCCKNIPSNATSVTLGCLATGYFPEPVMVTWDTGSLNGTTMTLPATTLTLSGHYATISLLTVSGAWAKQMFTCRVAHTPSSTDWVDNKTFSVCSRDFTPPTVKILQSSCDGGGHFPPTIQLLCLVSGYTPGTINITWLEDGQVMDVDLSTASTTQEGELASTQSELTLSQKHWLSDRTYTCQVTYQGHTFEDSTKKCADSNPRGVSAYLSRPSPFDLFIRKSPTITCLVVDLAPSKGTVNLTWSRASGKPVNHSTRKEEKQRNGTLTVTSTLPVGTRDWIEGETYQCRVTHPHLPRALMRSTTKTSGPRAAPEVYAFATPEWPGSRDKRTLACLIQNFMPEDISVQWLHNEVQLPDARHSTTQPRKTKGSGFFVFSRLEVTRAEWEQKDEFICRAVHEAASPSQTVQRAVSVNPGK

The target of the assay is human IgE (human) (UniProt P01854). As to the kind of experiment: SPR.

B1: Ab2 (antibody, human IgG1, kappa, V domains shown)
VH: QSVEESGGRLVTPGTPLTLTCTVSGFSLSSFNMDWVRQAPGEGLEWIGAVSTGGSAYYAKWAKGRFTISKTSTAVDLKITSPTTEDTATYFCARVDSSGWGYFDLWGQGTLVTVSS
VL: AIEMTQTPFSVSAAVGGTVTINCQASENIYSSLAWYQQKPGQPPKLLIYYASNLASGVSSRFKGSGSGTDFTLTISDLECADAATYYCQSYYFISSTDFNAFGGGTEVVVKR
Regarding B1, the binding result was “binds”.

B2: Ab3 (antibody, human IgG1, kappa, V domains shown)
VH: QSLEESGGDLVKPGASLTLTCTTSVFDLSSYYWICWVRQAPGKGLEWIACVYATSGSTDYATWAKGRLTISKASSTTVTLQMTSLTAADTATYFCARGGIYGGDGFNLWGPGTLVTVSS
VL: AFELTQTPASVEAAVGGTVTINCQASESISNWLAWYQQKPGQPPKLLIYRASTLTSGVPSRFKGSGSGTEFTLTISDLECADAATYYCQSYDPSIIDGFAFGGGTEVVVKR
With B2, the binding result is “binds”.

For the origin of these results see patent US20180258163A1.
